Among all 340,000 compounds or so, about 170 (0.05%) were called active. The inconclusive results got no clear call from the source; some entries with a clear call stand among them for comparison. Calls follow the shape of the dose curve; as a rule, active = well fitted inhibition curve with a large enough effect in the signal ratio, with a control signal flat (not every such curve was filed as active); inconclusive = small, poorly fitted or top-dose-only effect, or effect the other way, or a change in a side signal; inactive = flat fitted curve, though single readings scatter; the % refers to the signal ratio. Potencies of inconclusive entries are doubtful fits and often do not repeat.
Experiment: qHTS Assay to Find Inhibitors of Chronic Active B-Cell Receptor Signaling;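 as to activity change, negative = inhibition: plate controls were basal doxycycline-induced cells for no effect and cells given 10 µM MG132 for full effect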
Details: ABC-DLBCL IkBa-CBG/CBR reporter, luminescence ratio (green luciferase fused to IkBa over red control in TMD8 lymphoma cells), 4 h; activity change, negative = inhibition: at 46.1 µM (top of the series)
Outline: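 Cell line TMD8 (human ABC DLBCL), stably expressing tet-inducible CBG68-IkBa fusion and CBR; IMDM/0.5% FBS; cpd up to 46 uM; dox induction, 4 h, 37C/5% CO2; dual luminescence; green/red ratio; MG132 control.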
Potency is read from the fitted curve at half-maximal effect.

Row | Structure (SMILES) | activity change, negative = inhibition | Potency
1 | CCN(CC)C(=O)[C@H]1CC(CC(=O)NCCCOC)C(=O)N2CCc3c([nH]c4ccccc34)[C@]12C (stereo partly specified) | inconclusive: 2.62% | –
2 | O=C(NNC(=S)NC1CCCCC1)c1ccc(Cl)s1 | – | inconclusive: 12.6 µM [falling, partial curve]
3 | Cc1ccc(-c2nnc(-c3ccccc3Br)o2)cc1 | inconclusive: -6.14% | –
4 | O=C(NNC(=O)c1cc(Cl)ccc1O)c1ccc(NS(=O)(=O)c2cccs2)cc1 | – | inconclusive: 18.4 µM [falling, partial curve]
5 | COc1cc(OC)cc(C(=O)Nc2ccc(Cn3ccnc3)cc2)c1 | inconclusive: 0.28% | –
6 | COc1ccc(C2=Nn3c([n+](C)c4ccccc43)SC2)cc1 | inconclusive: 12% | –
7 | Cc1ccc(/C=C2\SC(=S)N(CCC(=O)NNC(=O)c3ccncc3)C2=O)cc1 | – | inconclusive: 35.5 µM [falling, single point]
8 | O=C1OCC2OC(O)C(O)C(O)C2OC(=O)c2cc(O)c(O)c(O)c2-c2c(O)c(O)c3oc(=O)c4c(c(O)c(O)c5oc(=O)c2c3c54)-c2c1cc(O)c(O)c2O (stereo unspecified) | inactive | –
9 | CC(C#N)(NC(=O)COC(=O)c1ccccc1NCCO)C1CC1 (stereo unspecified) | – | inconclusive: 18.4 µM [falling, single point]
10 | O=C(Nc1ccc([N+](=O)[O-])cc1)N1CCN(C(=O)C2CCCO2)CC1 (stereo unspecified) | inactive | –
11 | C=C1CCc2c([nH]c3ccc(OCC(C)C)cc23)C1=O | inactive | –
12 | COc1cccc(CC(C(=O)Nc2cc(C)ccc2C)c2nn[nH]n2)c1OC (stereo unspecified) | – | inconclusive: 1.41 µM [falling, full curve, poor fit]
13 | Cn1c(SCc2c(F)cccc2Cl)nnc1-c1cccs1 | inconclusive: 4.5% | –
14 | Cc1cs/c(=N\N=C2CCCCC2)n1Cc1ccco1 | inconclusive: -24.9% | –
15 | COc1ccc(CN2CCS(=O)(=O)CC2)cc1OC | inconclusive: -5.54% | –
16 | CC(Sc1n[nH]c(-c2ccccc2)n1)C(=O)c1c(N)n(C)c(=O)n(C)c1=O (stereo unspecified) | inconclusive: 2.97% | –
17 | Cc1c(C)c2ccc(OCC(=O)N3CCC(C(=O)O)CC3)cc2oc1=O | – | inconclusive: 31.6 µM [falling, partial curve]
18 | Cc1c(CN2CCC(Oc3ccc(C(=O)N4CCCCC4)cc3)CC2)cnn1C | inactive | –
19 | S=c1[nH]c(-c2ccccc2)cn1/N=C/c1ccccc1Br | inconclusive: -11.1% | –
20 | C=CCn1cc(CN2CCC(C(=O)Nc3cccc(-c4cccc(Cl)c4)c3)CC2)c(C)n1 | inconclusive: -10.1% | –
21 | CC(=O)Nc1cccc(-c2csc(NCc3ccco3)n2)c1 | inconclusive: -8.16% | –

Whole records, looked up by structure:
O=C(NNC(=S)NC1CCCCC1)c1ccc(Cl)s1 reads Potency: inconclusive: 12.6 µM [falling, partial curve]
C=C1CCc2c([nH]c3ccc(OCC(C)C)cc23)C1=O reads activity change, negative = inhibition: inactive

From PubChem BioAssay AID493014 (National Center for Advancing Translational Sciences (NCATS), 2011)
